The other results are listed elsewhere or left out.
Tests used:
Experiment in all cases: log2 fold change, soluble protein after heating vs DMSO (PISA); higher = thermal stabilisation; K562 lysate, 10 uM; active = over 0.2 and 3.5 SD of the protein, either way, in both replicates (recomputed)
vemurafenib = compound: CCCS(=O)(=O)Nc1ccc(F)c(C(=O)c2c[nH]c3ncc(-c4ccc(Cl)cc4)cc23)c1F [vemurafenib]
In short: (§1)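 Log-two fold change in thermal stability relative to solvent controls is reported from duplicates. For each sample, crude K562 extract from dounce-homogenised pellets in PBS pH 7.4 with 1 mM MgCl2, at 1 mg/mL protein, was treated with 10 μM compound for 30 min. Aliquots heated for 3 min across 48°C-58°C were pooled, brought to 0.5% NP-40 at 4°C and cleared at 21,000xg for 90 min. The supernatant was quantified by TMTpro 16plex LC-MS/MS with channel sums equalised.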

By UniProt entry, the sequences of proteins in these tests, tags left out. Where a name states a change or a piece, a line headed by the entry shows the natural chain unless it says otherwise.
UniProt O00255, whole entry, looked up: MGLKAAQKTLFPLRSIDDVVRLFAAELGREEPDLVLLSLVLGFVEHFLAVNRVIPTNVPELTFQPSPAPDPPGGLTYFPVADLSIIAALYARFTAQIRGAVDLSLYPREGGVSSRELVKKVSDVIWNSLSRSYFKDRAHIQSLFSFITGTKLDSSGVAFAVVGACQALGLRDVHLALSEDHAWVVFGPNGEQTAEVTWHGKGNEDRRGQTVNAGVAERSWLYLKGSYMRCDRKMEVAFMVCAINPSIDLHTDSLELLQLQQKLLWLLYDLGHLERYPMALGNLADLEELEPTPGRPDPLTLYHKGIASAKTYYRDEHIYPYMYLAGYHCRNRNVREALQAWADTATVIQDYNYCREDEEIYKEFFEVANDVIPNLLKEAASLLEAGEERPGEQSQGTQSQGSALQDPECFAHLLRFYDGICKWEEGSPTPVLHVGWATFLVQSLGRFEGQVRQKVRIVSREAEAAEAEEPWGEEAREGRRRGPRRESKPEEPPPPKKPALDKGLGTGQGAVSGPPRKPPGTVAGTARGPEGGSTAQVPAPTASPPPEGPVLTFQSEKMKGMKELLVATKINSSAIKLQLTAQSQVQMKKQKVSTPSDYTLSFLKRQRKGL
UniProt O95402: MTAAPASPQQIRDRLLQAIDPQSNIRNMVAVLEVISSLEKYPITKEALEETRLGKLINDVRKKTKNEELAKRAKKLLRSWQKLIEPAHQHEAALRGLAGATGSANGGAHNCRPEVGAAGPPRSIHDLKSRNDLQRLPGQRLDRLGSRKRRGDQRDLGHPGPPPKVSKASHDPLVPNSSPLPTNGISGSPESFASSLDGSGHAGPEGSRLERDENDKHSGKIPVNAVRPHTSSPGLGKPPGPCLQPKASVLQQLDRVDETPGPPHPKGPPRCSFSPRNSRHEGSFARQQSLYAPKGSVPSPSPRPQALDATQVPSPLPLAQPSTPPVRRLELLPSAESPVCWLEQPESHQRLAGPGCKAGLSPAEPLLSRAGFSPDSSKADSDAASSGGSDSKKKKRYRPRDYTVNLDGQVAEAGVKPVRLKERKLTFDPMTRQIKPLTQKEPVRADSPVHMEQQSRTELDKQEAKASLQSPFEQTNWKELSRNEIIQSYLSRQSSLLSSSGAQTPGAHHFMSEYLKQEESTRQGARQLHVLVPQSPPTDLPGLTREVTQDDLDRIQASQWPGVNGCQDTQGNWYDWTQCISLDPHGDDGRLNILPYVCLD
UniProt Q96IZ6: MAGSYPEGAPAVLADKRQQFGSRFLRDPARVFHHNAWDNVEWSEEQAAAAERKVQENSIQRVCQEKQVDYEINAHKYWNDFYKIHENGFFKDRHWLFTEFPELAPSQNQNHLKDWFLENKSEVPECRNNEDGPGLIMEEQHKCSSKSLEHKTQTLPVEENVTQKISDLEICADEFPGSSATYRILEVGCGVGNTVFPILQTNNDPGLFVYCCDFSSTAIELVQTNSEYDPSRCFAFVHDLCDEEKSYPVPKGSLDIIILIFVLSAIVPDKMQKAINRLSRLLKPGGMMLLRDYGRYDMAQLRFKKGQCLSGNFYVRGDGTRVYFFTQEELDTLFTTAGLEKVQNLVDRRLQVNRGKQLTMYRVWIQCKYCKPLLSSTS
UniProt A4D2B0: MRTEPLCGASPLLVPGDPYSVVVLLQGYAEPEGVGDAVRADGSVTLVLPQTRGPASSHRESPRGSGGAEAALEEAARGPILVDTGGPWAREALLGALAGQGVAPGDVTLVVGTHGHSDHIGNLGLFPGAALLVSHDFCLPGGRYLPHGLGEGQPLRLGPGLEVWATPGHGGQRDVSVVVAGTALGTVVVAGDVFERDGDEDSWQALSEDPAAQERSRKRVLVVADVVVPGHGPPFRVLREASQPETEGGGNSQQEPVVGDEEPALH
UniProt Q5VZF2: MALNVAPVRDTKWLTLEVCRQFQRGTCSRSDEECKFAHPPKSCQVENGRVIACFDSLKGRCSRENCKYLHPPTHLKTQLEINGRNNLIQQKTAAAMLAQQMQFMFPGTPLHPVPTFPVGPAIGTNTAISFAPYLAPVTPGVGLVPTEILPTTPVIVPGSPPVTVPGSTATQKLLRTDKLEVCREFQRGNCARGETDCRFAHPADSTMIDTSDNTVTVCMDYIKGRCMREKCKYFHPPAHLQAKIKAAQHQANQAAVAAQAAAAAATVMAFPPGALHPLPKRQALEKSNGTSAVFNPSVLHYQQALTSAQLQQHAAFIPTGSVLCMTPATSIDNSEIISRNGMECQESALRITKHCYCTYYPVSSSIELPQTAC
UniProt Q86XA0: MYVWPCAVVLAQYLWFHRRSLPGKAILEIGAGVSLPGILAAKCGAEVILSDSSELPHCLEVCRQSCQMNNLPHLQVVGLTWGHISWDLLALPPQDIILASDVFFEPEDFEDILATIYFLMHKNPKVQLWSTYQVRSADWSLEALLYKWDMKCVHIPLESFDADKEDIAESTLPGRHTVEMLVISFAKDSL
UniProt Q9UBP6: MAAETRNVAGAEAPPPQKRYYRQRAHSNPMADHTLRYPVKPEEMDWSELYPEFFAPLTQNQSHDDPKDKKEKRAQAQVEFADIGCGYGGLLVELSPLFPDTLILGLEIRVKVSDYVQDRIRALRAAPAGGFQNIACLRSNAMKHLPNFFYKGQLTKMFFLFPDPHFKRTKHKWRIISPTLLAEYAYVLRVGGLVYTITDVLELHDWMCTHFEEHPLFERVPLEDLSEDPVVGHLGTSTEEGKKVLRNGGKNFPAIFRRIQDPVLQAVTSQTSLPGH
UniProt Q14680: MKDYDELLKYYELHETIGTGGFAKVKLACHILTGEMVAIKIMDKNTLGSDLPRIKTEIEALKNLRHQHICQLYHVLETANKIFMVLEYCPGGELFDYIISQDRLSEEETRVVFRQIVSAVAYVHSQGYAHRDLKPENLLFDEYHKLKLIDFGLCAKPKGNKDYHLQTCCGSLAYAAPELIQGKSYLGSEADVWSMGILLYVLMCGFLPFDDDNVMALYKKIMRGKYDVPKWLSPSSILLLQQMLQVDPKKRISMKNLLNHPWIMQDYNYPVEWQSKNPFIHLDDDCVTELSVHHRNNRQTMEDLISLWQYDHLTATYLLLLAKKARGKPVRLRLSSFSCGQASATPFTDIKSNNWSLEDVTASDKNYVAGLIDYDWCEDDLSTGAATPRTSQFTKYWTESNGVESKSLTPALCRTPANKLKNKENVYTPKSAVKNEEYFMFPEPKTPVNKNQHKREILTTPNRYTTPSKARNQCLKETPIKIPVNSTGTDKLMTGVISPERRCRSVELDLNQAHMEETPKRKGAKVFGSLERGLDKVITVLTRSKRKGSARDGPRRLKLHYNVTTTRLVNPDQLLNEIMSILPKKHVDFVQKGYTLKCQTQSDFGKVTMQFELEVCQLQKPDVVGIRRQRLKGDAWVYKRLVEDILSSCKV
UniProt O75586: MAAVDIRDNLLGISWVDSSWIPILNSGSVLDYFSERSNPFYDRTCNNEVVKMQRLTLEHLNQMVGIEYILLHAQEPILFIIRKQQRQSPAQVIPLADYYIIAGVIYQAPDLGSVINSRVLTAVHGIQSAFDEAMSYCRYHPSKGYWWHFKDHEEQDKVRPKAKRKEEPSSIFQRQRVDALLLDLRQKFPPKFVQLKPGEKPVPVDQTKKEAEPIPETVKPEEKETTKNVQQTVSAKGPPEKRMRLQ
UniProt Q14703: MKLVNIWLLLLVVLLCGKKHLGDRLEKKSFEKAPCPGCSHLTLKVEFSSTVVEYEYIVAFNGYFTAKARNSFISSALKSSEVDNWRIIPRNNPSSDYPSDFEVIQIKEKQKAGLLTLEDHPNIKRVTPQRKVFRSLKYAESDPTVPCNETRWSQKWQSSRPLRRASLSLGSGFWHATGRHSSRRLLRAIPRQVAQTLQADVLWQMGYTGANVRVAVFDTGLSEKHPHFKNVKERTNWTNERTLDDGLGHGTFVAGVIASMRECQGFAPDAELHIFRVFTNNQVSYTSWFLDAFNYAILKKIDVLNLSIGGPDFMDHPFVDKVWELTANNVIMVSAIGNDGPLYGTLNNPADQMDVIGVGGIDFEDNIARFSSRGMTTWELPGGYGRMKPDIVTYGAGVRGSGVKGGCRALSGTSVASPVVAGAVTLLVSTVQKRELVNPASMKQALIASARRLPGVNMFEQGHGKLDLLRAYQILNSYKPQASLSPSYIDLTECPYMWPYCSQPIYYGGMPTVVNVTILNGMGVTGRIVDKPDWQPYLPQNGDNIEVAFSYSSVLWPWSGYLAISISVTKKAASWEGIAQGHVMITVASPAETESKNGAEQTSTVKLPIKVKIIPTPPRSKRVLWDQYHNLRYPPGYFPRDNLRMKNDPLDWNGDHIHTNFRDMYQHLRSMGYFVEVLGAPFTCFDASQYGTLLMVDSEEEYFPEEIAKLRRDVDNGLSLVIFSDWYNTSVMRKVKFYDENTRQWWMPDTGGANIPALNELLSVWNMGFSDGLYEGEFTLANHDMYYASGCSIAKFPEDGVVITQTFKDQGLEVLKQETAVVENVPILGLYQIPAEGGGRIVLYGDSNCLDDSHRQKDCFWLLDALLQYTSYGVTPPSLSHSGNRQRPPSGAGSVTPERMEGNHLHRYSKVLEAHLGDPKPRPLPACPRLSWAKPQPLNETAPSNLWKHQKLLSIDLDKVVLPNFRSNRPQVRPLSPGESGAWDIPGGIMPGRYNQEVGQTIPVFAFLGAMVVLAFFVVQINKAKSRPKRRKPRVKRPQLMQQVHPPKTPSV
UniProt Q9BV79: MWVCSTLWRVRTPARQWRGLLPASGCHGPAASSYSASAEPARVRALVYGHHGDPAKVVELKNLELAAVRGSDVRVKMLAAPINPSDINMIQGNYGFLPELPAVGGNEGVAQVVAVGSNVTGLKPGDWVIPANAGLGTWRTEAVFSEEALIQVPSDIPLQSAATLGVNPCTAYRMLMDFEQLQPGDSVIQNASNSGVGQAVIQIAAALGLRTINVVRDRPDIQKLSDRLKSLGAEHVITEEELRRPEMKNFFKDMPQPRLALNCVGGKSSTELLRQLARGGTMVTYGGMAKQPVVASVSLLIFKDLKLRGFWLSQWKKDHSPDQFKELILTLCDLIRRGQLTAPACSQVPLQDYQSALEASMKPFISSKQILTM
UniProt Q6P2C8: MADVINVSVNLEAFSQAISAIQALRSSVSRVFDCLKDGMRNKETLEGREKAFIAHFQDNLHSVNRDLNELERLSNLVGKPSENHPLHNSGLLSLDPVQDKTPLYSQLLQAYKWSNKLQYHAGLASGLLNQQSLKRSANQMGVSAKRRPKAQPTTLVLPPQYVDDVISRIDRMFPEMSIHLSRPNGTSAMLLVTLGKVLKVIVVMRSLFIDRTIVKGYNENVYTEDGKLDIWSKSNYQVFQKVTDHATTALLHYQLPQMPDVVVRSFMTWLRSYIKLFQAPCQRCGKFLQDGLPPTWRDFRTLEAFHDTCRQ
UniProt Q02078: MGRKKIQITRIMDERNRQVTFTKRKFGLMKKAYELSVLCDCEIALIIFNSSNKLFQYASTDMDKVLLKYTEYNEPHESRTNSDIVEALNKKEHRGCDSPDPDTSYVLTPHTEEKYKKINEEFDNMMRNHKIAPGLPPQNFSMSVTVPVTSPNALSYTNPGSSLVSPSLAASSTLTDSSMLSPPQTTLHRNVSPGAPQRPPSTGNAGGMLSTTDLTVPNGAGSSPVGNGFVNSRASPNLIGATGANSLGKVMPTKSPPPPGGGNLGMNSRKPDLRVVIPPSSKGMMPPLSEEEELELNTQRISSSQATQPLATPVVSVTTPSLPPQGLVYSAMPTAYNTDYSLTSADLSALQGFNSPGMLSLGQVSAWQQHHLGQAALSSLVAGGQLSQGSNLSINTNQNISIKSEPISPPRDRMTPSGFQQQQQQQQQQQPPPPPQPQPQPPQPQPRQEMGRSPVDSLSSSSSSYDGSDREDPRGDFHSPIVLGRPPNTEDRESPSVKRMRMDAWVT
UniProt A0JLT2: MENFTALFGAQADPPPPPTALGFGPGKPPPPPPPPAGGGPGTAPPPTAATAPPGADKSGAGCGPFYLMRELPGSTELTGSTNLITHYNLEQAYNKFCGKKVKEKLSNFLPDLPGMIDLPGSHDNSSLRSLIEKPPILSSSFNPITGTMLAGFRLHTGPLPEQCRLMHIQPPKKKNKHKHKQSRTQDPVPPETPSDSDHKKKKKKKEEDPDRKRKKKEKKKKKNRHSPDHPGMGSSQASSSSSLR
UniProt Q6ZWT7: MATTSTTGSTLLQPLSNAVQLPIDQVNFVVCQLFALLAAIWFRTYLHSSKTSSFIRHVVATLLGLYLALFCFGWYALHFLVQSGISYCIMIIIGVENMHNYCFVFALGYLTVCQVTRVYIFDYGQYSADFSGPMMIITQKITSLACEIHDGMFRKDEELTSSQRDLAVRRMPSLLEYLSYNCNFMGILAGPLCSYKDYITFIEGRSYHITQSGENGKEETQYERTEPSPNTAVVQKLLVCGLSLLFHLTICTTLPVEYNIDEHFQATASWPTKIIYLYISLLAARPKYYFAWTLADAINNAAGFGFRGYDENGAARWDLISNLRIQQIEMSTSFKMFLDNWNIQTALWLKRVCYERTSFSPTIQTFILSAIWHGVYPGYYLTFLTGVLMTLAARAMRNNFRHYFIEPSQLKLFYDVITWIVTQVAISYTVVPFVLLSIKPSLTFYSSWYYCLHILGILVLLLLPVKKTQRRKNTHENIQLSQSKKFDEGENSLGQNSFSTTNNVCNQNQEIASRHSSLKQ

[1] = compound: CCCS(=O)(=O)Nc1ccc(F)c(C(=O)c2c[nH]c3ncc(Cl)cc23)c1F
In short: as §1

barasertib = compound: CCN(CCCOc1ccc2c(Nc3cc(CC(=O)Nc4cccc(F)c4)[nH]n3)ncnc2c1)CCOP(=O)(O)O [barasertib]
In short: as §1

[2] = compound: CC[C@@H]1C(=O)N(C)c2cnc(Nc3ccc(C(=O)NC4CCN(C)CC4)cc3OC)nc2N1C1CCCC1
In short: as §1

volasertib = compound: CC[C@@H]1C(=O)N(C)c2cnc(Nc3ccc(C(=O)N[C@H]4CC[C@H](N5CCN(CC6CC6)CC5)CC4)cc3OC)nc2N1C(C)C [volasertib]
In short: as §1

[3] = compound: CCn1c(C(=O)N(C2CC2)C2CC2)cc2c3c(ncn3C)c(Nc3cc(C)n(C)n3)nc21
In short: as §1

[4] = compound: CCn1cc(-c2ccnc3[nH]c(-c4cccc(CN(C)C)c4)cc23)c(-c2ccc(NC(=O)N(C)C)cc2)n1
In short: as §1

[5] = compound: CN1CCC(CNc2ccc3ncc(-c4cccc(OC(F)(F)F)c4)n3n2)CC1
In short: as §1

saracatinib = compound: CN1CCN(CCOc2cc(OC3CCOCC3)c3c(Nc4c(Cl)ccc5c4OCO5)ncnc3c2)CC1 [saracatinib]
In short: as §1

sotrastaurin = compound: CN1CCN(c2nc(C3=C(c4c[nH]c5ccccc45)C(=O)NC3=O)c3ccccc3n2)CC1 [sotrastaurin]
In short: as §1

alvocidib = compound: CN1CC[C@H](c2c(O)cc(O)c3c(=O)cc(-c4ccccc4Cl)oc23)[C@H](O)C1 [alvocidib]
In short: as §1

Tubastatin A = compound: CN1CCc2c(c3ccccc3n2Cc2ccc(C(=O)NO)cc2)C1 [Tubastatin A]
In short: as §1

[6] = compound: CNC(=O)C1=CC=CC=C1NC2=NC(=NC=C2Cl)NC3=C(C=C(C=C3)N4CCOCC4)OC
In short: as §1

defactinib = compound: CNC(=O)c1ccc(Nc2ncc(C(F)(F)F)c(NCc3nccnc3N(C)S(C)(=O)=O)n2)cc1 [defactinib]
In short: as §1

[7] = compound: CNc1nc(-c2ccc3c(N)n[nH]c3c2)cc(N2C[C@@H](C(=O)NC3CCCCC3)CC[C@H]2C)n1
In short: as §1

encorafenib = compound: COC(=O)N[C@@H](C)CNc1nccc(-c2cn(C(C)C)nc2-c2cc(Cl)cc(NS(C)(=O)=O)c2F)n1 [encorafenib]
In short: as §1

[8] = compound: COC(=O)[C@H](CCSC)NC(=O)C1=C(C=C(C=C1)NC[C@H](CS)N)C2=CC=CC=C2
In short: as §1

[9] = compound: COc1cc2nc(-c3cc(F)ccc3O)nc(N[C@@H]3CNC[C@H]3C(C)(C)O)c2cc1OC
In short: as §1

alisertib = compound: COc1cc(Nc2ncc3c(n2)-c2ccc(Cl)cc2C(c2c(F)cccc2OC)=NC3)ccc1C(=O)O [alisertib]
In short: as §1

gefitinib = compound: COc1cc2ncnc(Nc3ccc(F)c(Cl)c3)c2cc1OCCCN1CCOCC1 [gefitinib]
In short: as §1

Measured: log2 fold change

METTL26 (UniProt Q96S19)
inactive: vemurafenib -0.171 | [1] -0.015 | barasertib 0.141 | [2] -0.067 | volasertib 0.039 | [3] 0.073 | [4] -0.023 | [5] -0.075 | saracatinib -0.018 | sotrastaurin -0.01 | alvocidib 0.006 | Tubastatin A -0.027 | [6] 0.172 | defactinib 0.215 | [7] -0.033 | encorafenib -0.033 | [8] 0.056 | [9] -0.002

MEN1 (UniProt O00255)
inactive: vemurafenib 0.03 | [1] 0.242 | [2] 0.012 | volasertib 0.054 | [3] -0.172 | saracatinib 0.059 | sotrastaurin -0.362 | Tubastatin A -0.132 | [6] -0.026 | defactinib 0.061 | [7] 0.008 | encorafenib -0.119 | [8] -0.033 | alisertib -0.364 | [9] -0.103 | gefitinib 0.167

MED26 (UniProt O95402)
inactive: vemurafenib -0.008 | [1] 0.01 | barasertib 0.035 | [2] -0.018 | volasertib -0.031 | [3] -0.048 | [4] -0.215 | [5] 0.088 | sotrastaurin -0.001 | alvocidib 0.066 | Tubastatin A 0.094 | [6] -0.081 | defactinib 0.078 | encorafenib 0.146 | [8] -0.109 | alisertib -0.094 | [9] -0.002 | gefitinib 0.088

METTL2A (UniProt Q96IZ6)
inactive: vemurafenib 0.073 | [1] 0.058 | barasertib 0.023 | [2] -0.046 | volasertib -0.015 | [3] -0.011 | [4] 0.06 | [5] -0.113 | saracatinib -0.004 | sotrastaurin 0.011 | alvocidib 0.023 | Tubastatin A -0.079 | [6] 0.058 | defactinib 0.019 | [7] -0.028 | encorafenib -0.007 | [8] 0.055 | alisertib -0.057 | [9] 0.029 | gefitinib 0.04

MBLAC1 (UniProt A4D2B0)
inactive: vemurafenib 0.078 | [1] 0.063 | [2] -0.092 | volasertib 0.036 | [4] -0.003 | [5] 0.06 | alvocidib -0.014 | [6] 0.126 | defactinib 0.051 | encorafenib -0.024 | [8] 0.045 | [9] 0.085

MBNL2 (UniProt Q5VZF2)
inactive: vemurafenib -0.098 | [1] -0.076 | [2] 0.119 | volasertib -0.048 | [3] -0.06 | [4] -0.029 | [5] 0.296 | sotrastaurin -0.101 | alvocidib -0.049 | Tubastatin A 0.087 | [6] 0.066 | defactinib 0.026 | encorafenib 0.027 | [8] -0.096 | [9] 0.062

MCM3 isoform 2 (UniProt P25205)
inactive: vemurafenib -0.018 | [1] 0.025 | barasertib 0.001 | [2] -0.001 | volasertib -0.009 | [3] 0.02 | [4] 0.065 | [5] -0.015 | saracatinib -0.024 | sotrastaurin -0.013 | alvocidib 0.018 | Tubastatin A 0 | [6] 0.01 | defactinib 0.014 | [7] -0.008 | encorafenib -0.002 | [8] -0.021 | alisertib 0.01 | [9] -0.007 | gefitinib -0.018

METTL23 (UniProt Q86XA0)
inactive: vemurafenib 0.121 | [1] -0.066 | [2] 0.201 | volasertib 0.135 | defactinib 0.064 | encorafenib -0.059 | [8] 0.034 | alisertib -0.132 | [9] 0.083 | gefitinib -0.279

METTL1 (UniProt Q9UBP6)
inactive: vemurafenib -0.049 | [1] -0.074 | barasertib -0.031 | [2] 0.015 | volasertib -0.028 | [3] 0 | [4] -0.027 | [5] 0.068 | saracatinib 0.029 | sotrastaurin 0.05 | alvocidib -0.024 | Tubastatin A -0.008 | [6] -0.016 | defactinib 0.023 | [7] -0.035 | encorafenib -0.009 | [8] 0.058 | alisertib -0.032 | [9] -0.013 | gefitinib 0

2 records picked at random from the list so far:
MBLAC1 (UniProt A4D2B0)
inactive: vemurafenib 0.078 | [1] 0.063 | [2] -0.092 | volasertib 0.036 | [4] -0.003 | [5] 0.06 | alvocidib -0.014 | [6] 0.126 | defactinib 0.051 | encorafenib -0.024 | [8] 0.045 | [9] 0.085

MCM3 isoform 2 (UniProt P25205)
inactive: vemurafenib -0.018 | [1] 0.025 | barasertib 0.001 | [2] -0.001 | volasertib -0.009 | [3] 0.02 | [4] 0.065 | [5] -0.015 | saracatinib -0.024 | sotrastaurin -0.013 | alvocidib 0.018 | Tubastatin A 0 | [6] 0.01 | defactinib 0.014 | [7] -0.008 | encorafenib -0.002 | [8] -0.021 | alisertib 0.01 | [9] -0.007 | gefitinib -0.018

Next part

MELK (UniProt Q14680)
inactive: vemurafenib -0.034 | [1] 0.139 | [2] 0.052 | volasertib -0.051 | [3] -0.089 | [4] 0.033 | [5] -0.018 | saracatinib 0.051 | sotrastaurin 0.034 | alvocidib -0.084 | Tubastatin A -0.053 | [6] -0.306 | defactinib -0.082 | [7] -0.013 | encorafenib -0.001 | [8] 0.146 | alisertib -0.032 | [9] -0.07 | gefitinib 0.044

MCRS1 isoform 2 (UniProt Q96EZ8)
inactive: vemurafenib 0.103 | barasertib 0.18 | [4] 0.02 | [5] -0.081 | alvocidib 0.147 | defactinib -0.203

MED6 (UniProt O75586)
inactive: vemurafenib 0.029 | [1] -0.036 | barasertib -0.103 | [2] -0.022 | volasertib 0.021 | [3] 0.048 | [4] -0.03 | [5] 0.031 | saracatinib -0.031 | sotrastaurin 0 | alvocidib -0.046 | Tubastatin A -0.118 | defactinib -0.058 | [7] 0.056 | encorafenib 0.045 | [8] 0.136 | [9] -0.031

MBTPS1 (UniProt Q14703)
inactive: vemurafenib 0.247 | barasertib 0.199 | [2] 0.034 | [3] 0.003 | [4] 0.211 | [5] -0.185 | saracatinib -0.031 | sotrastaurin -0.014 | alvocidib 0.096 | Tubastatin A -0.058 | [6] 0.013 | defactinib -0.002 | [7] 0.029 | encorafenib 0.048 | [8] -0.036

MECR (UniProt Q9BV79)
inactive: vemurafenib 0.055 | [1] 0.035 | barasertib 0.008 | [2] -0.05 | volasertib -0.008 | [3] 0.004 | [4] -0.043 | [5] 0.023 | saracatinib 0.095 | sotrastaurin -0.007 | alvocidib 0.018 | Tubastatin A 0.014 | [6] 0.01 | defactinib 0.007 | [7] 0.053 | encorafenib -0.06 | [8] 0.049 | alisertib 0 | [9] 0.04 | gefitinib -0.011

MED27 (UniProt Q6P2C8)
inactive: vemurafenib 0.003 | [1] 0.008 | barasertib -0.029 | [2] 0.015 | volasertib -0.047 | [3] -0.038 | [4] 0.043 | [5] 0.001 | saracatinib 0.06 | sotrastaurin 0.039 | alvocidib -0.005 | Tubastatin A -0.064 | [6] 0.004 | defactinib 0.014 | [7] -0.005 | encorafenib 0.071 | [8] 0.032 | alisertib -0.011 | [9] 0.051 | gefitinib -0.063

MED4 (UniProt Q9NPJ6)
inactive: vemurafenib 0.014 | [1] -0.003 | barasertib -0.004 | [2] 0.075 | volasertib 0.02 | [3] 0.007 | [4] -0.012 | [5] 0.071 | saracatinib -0.029 | sotrastaurin 0.017 | alvocidib -0.001 | Tubastatin A 0.03 | [6] 0.002 | defactinib 0.028 | [7] -0.015 | encorafenib 0.006 | [8] -0.076 | alisertib 0.031 | [9] 0.014 | gefitinib -0.022

MEF2A isoform 2 (UniProt Q02078)
inactive: vemurafenib 0.065 | [1] 0.07 | barasertib -0.013 | volasertib 0.017 | [3] -0.002 | [4] -0.071 | [5] 0.024 | sotrastaurin 0.01 | alvocidib -0.033 | Tubastatin A 0.002 | [6] -0.009 | defactinib -0.047 | alisertib -0.002 | [9] 0 | gefitinib 0.068

MBOAT1 (UniProt Q6ZNC8)
inactive: vemurafenib -0.196 | [1] 0.063 | barasertib -0.044 | [2] -0.056 | volasertib 0.054 | [3] 0.038 | sotrastaurin 0.471 | Tubastatin A 0.461 | [6] 0.049 | defactinib 0.052 | encorafenib 0.031 | [8] 0.164 | alisertib -0.049 | [9] -0.156 | gefitinib -0.113

MED19 (UniProt A0JLT2)
inactive: vemurafenib -0.019 | [1] 0.051 | barasertib 0.047 | volasertib 0.03 | [3] -0.092 | [4] 0.171 | [5] -0.136 | saracatinib -0.034 | sotrastaurin 0.001 | alvocidib 0.109 | Tubastatin A -0.141 | defactinib 0.149 | [7] 0.161 | [9] -0.076

MBOAT2 (UniProt Q6ZWT7)
inactive: vemurafenib 0.02 | [1] -0.01 | barasertib 0.121 | [2] 0.159 | volasertib -0.103 | [3] -0.015 | [4] -0.251 | [5] 0.026 | saracatinib 0.045 | sotrastaurin 0.284 | alvocidib -0.024 | Tubastatin A 0 | [6] 0.079 | defactinib 0.002 | [7] -0.025 | encorafenib 0.156 | [8] -0.073 | alisertib -0.003 | [9] 0.034 | gefitinib 0.064
